PubChem BioAssay AID1224826 | NIAID | 2016

- Test: 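Regulators of Tlr4 signalling leading to Tnf-alpha expression in macrophages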 (primary screen)
- System: RAW264.7 G9 macrophages from mouse bearing reporters for p65 (GFP) and the Tnf promoter (mCherry)
- Reagent: siRNA pool against mouse genes, 100 nM
- Timing: 16 h of LPS stimulation, after 2 days of siRNA transfection
- Treatment: bacterial lipopolysaccharide (Salmonella minnesota R595), 10 ng/ml
- Read-out: 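Nuclear mCherry signal of the Tnf promoter reporter measured by imaging after background removal, scaled to each plate median and turned into robust z-scores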
- Reading the numbers: Tnf reporter robust z-score: higher = stronger Tnf promoter reporter signal after LPS; Tnf reporter intensity: higher = stronger Tnf promoter reporter signal
- Hit rule: 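a well counts as active at a score of -1.3 or below (Tlr4 knock-down control median) or above 3 (raised signal); controls and wells holding fewer than 50 cells are excluded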
- Calls: active = Tnf reporter clearly lowered or raised; inactive = no clear change in Tnf reporter
In all, the deposit lists about 17,000 reagents; below is a random part of them. Of all reagents, about 1,110 (6.6%) got an active call. 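Active means lowered or raised reporter signal; replicate intensities are raw and not normalised per plate.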 Reagents against one gene are numbered here.

| gene knocked down | reagent | Tnf reporter robust z-score | fewer than 50 cells in well | Tnf reporter intensity, replicate 1 | Tnf reporter intensity, replicate 2 | Call |
| --- | --- | --- | --- | --- | --- | --- |
| Esr2 | 1 | 1.38 | enough cells in well | 288 | 390 | inactive |
| Parvb | 1 | -0.65 | enough cells in well | 118 | 78.7 | inactive |
| Or1e1c | 1 | -0.34 | enough cells in well | 289 | 64.6 | inactive |
| Gadd45g | 1 | -1.12 | enough cells in well | 172 | 135 | inactive |
| Bmper | 1 | -0.77 | enough cells in well | 11.9 | 119 | inactive |
| Pabir1 | 1 | -0.31 | enough cells in well | 156 | 43.4 | inactive |
| Trib3 | 1 | -0.56 | enough cells in well | 147 | 104 | inactive |
| Rnf135 | 1 | – | fewer than 50 cells per well; well left out of calls | 312 | 49 | inactive |
| 4930542C12Rik | 1 | – | fewer than 50 cells per well; well left out of calls | 312 | 195 | inactive |
| Wnt3 | 1 | 0.71 | enough cells in well | 394 | 224 | inactive |
| Vmn1r75 | 1 | – | fewer than 50 cells per well; well left out of calls | 54.7 | 53.4 | inactive |
| Map3k10 | 1 | -0.33 | enough cells in well | 172 | 96.1 | inactive |
| Nmur1 | 1 | -0.3 | enough cells in well | 192 | 266 | inactive |
| Xlr | 1 | 1.66 | enough cells in well | 187 | 126 | inactive |
| Cdk20 | 1 | 0.32 | enough cells in well | 107 | 173 | inactive |
| Syt4 | 1 | 2.41 | enough cells in well | 253 | 135 | inactive |
| Alg9 | 1 | 4.37 | enough cells in well | 428 | 306 | active |
| Siral2 | 1 | – | fewer than 50 cells per well; well left out of calls | 122 | 74.3 | inactive |
| Rpf2 | 1 | -0.33 | enough cells in well | 102 | 144 | inactive |
| Or5aq1b | 1 | 1.87 | enough cells in well | 276 | 270 | inactive |
| 4930522H14Rik | 1 | -0.59 | enough cells in well | 168 | 35.9 | inactive |
| Dyrk3 | 1 | 0.51 | enough cells in well | 233 | 182 | inactive |
| Zbtb32 | 1 | -0.04 | enough cells in well | 294 | 210 | inactive |
| Tnfsf4 | 1 | -0.65 | enough cells in well | 222 | 79.6 | inactive |
| Rnf5 | 1 | -0.28 | enough cells in well | 117 | 114 | inactive |
| Coa3 | 1 | -0.41 | enough cells in well | 152 | 159 | inactive |
| Mcrs1 | 1 | -0.77 | enough cells in well | 154 | 97.1 | inactive |
| Sdf4 | 1 | – | fewer than 50 cells per well; well left out of calls | 157 | 59.5 | inactive |
| Ncbp2 | 1 | 1.08 | enough cells in well | 263 | 170 | inactive |
| Omp | 1 | -0.64 | enough cells in well | 112 | 108 | inactive |
| Gper1 | 1 | 0.54 | enough cells in well | 253 | 352 | inactive |
| Nt5c1b | 1 | 1.13 | enough cells in well | 277 | 193 | inactive |
| Or10a5 | 1 | -0.7 | enough cells in well | 235 | 79.6 | inactive |
| Cdc42 | 1 | 0.72 | enough cells in well | 269 | 294 | inactive |
| Trim52 | 1 | -0.86 | enough cells in well | 137 | 77.8 | inactive |
| Or8d23 | 1 | 1.39 | enough cells in well | 212 | 199 | inactive |
| Triml1 | 1 | 0.55 | enough cells in well | 142 | 178 | inactive |
| Klhl11 | 1 | -0.17 | enough cells in well | 152 | 143 | inactive |
| Atp9b | 1 | 0.65 | enough cells in well | 234 | 177 | inactive |
| Ktn1 | 1 | -1.29 | enough cells in well | 121 | 95.1 | inactive |
| Cyp2b10 | 1 | 0.4 | enough cells in well | 220 | 190 | inactive |
| Timm29 | 1 | – | fewer than 50 cells per well; well left out of calls | 172 | 74 | inactive |
| Or8c16 | 1 | -0.56 | enough cells in well | 84 | 90.5 | inactive |
| Vdr | 1 | -0.3 | enough cells in well | 177 | 242 | inactive |
| Sstr5 | 1 | 0.71 | enough cells in well | 250 | 396 | inactive |
| Stpg1 | 1 | – | fewer than 50 cells per well; well left out of calls | 216 | 47.8 | inactive |
| Slc10a4 | 1 | -0.73 | enough cells in well | 135 | 89.8 | inactive |
| Nenf | 1 | -0.2 | enough cells in well | 238 | 73.7 | inactive |
| Nat8f3 | 1 | 1.77 | enough cells in well | 270 | 272 | inactive |
| Gdi2 | 1 | 0.86 | enough cells in well | 260 | 216 | inactive |
| Gdi2 | 2 | -0.87 | enough cells in well | 195 | 154 | inactive |
| Insyn1 | 1 | -0.25 | enough cells in well | 160 | 136 | inactive |
| Cdh17 | 1 | -0.14 | enough cells in well | 218 | 214 | inactive |
| Mcoln1 | 1 | -0.46 | enough cells in well | 257 | 144 | inactive |
| Rpp21 | 1 | 1.07 | enough cells in well | 199 | 149 | inactive |
| Tshr | 1 | -1.48 | enough cells in well | 222 | 19.7 | active |
| Chid1 | 1 | -0.46 | enough cells in well | 110 | 161 | inactive |
| Pfdn5 | 1 | 0.23 | enough cells in well | 248 | 205 | inactive |
| Pfdn5 | 2 | -0.55 | enough cells in well | 192 | 60.6 | inactive |
| Dcun1d1 | 1 | -0.02 | enough cells in well | 271 | 108 | inactive |
| Bms1 | 1 | 4.35 | enough cells in well | 237 | 413 | active |
| Vps39 | 1 | 0.92 | enough cells in well | 181 | 96.3 | inactive |
| Pgrmc2 | 1 | -0.46 | enough cells in well | 218 | 154 | inactive |
| Mapk8ip3 | 1 | -1 | enough cells in well | 131 | 106 | inactive |
| Glt28d2 | 1 | – | fewer than 50 cells per well; well left out of calls | 128 | 75.2 | inactive |
| Plcb2 | 1 | -0.26 | enough cells in well | 260 | 145 | inactive |
| Cxcl2 | 1 | -0.91 | enough cells in well | 124 | 250 | inactive |
| Trappc2b | 1 | – | fewer than 50 cells per well; well left out of calls | 175 | 35.2 | inactive |
| Myh8 | 1 | -0.72 | enough cells in well | 150 | 43.2 | inactive |
| Myl6 | 1 | 1.44 | enough cells in well | 444 | 262 | inactive |
| Bpifb5 | 1 | -1.38 | enough cells in well | 113 | 108 | active |
| Paip2 | 1 | -1.24 | enough cells in well | 89.3 | 74.1 | inactive |
| Pou6f2 | 1 | 1.48 | enough cells in well | 273 | 268 | inactive |
| Rit2 | 1 | -1.06 | enough cells in well | 215 | 120 | inactive |
| Scd2 | 1 | -0.7 | enough cells in well | 103 | 98.9 | inactive |

Reformatted: results already given.
Or8c16 — Tnf reporter robust z-score = -0.56; fewer than 50 cells in well = enough cells in well; Tnf reporter intensity, replicate 1 = 84; Tnf reporter intensity, replicate 2 = 90.5; Call = inactive
Vdr — Tnf reporter robust z-score = -0.3; fewer than 50 cells in well = enough cells in well; Tnf reporter intensity, replicate 1 = 177; Tnf reporter intensity, replicate 2 = 242; Call = inactive
Sstr5 — Tnf reporter robust z-score = 0.71; fewer than 50 cells in well = enough cells in well; Tnf reporter intensity, replicate 1 = 250; Tnf reporter intensity, replicate 2 = 396; Call = inactive
Stpg1 — fewer than 50 cells in well = fewer than 50 cells per well; well left out of calls; Tnf reporter intensity, replicate 1 = 216; Tnf reporter intensity, replicate 2 = 47.8; Call = inactive
Slc10a4 — Tnf reporter robust z-score = -0.73; fewer than 50 cells in well = enough cells in well; Tnf reporter intensity, replicate 1 = 135; Tnf reporter intensity, replicate 2 = 89.8; Call = inactive
Nenf — Tnf reporter robust z-score = -0.2; fewer than 50 cells in well = enough cells in well; Tnf reporter intensity, replicate 1 = 238; Tnf reporter intensity, replicate 2 = 73.7; Call = inactive
Nat8f3 — Tnf reporter robust z-score = 1.77; fewer than 50 cells in well = enough cells in well; Tnf reporter intensity, replicate 1 = 270; Tnf reporter intensity, replicate 2 = 272; Call = inactive
Gdi2 #1 — Tnf reporter robust z-score = 0.86; fewer than 50 cells in well = enough cells in well; Tnf reporter intensity, replicate 1 = 260; Tnf reporter intensity, replicate 2 = 216; Call = inactive
